Some entries share one result that the patent states for a list of compounds.
System: Pyricularia oryzae
Assay type: in vivo
Conditions: 250 ppm, rice seedlings sprayed one day before inoculation, assessed visually after 6 days; untreated plants 80% infected

Cc1ccc(-c2c(C)nc3ncnn3c2N2CCC(C)CC2)c(F)c1 [I-17, 5-methyl-6-(2-fluoro-4-methylphenyl)-7-(4-methylpiperidin-1-yl)-[1,2,4]triazolo[1,5-a]pyrimidine]
infection: no more than 15%

— US7094894B2, “Fungicidal triazolopyrimidines, method for the production thereof, use thereof for controlling harmful fungi, and agents containing said fungicidal triazolopyrimidines” (BASF Aktiengesellschaft, priority 2002, dated 2006)
